Experimental findings from PubChem BioAssay AID2685 (National Center for Advancing Translational Sciences (NCATS), 2010) are described below.

The experiment can be described thus: qHTS Assay for Lipid Storage Modulators in Drosophila S3 Cells.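 For cell number change: cells counted by Cell Tracker Red CMTPX staining in the red channel.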 Conditions: BODIPY lipid droplet fluorescence, 18-24 h; for cell number change: measured here: cell count max response, cells fed with added oleic acid. An outline of the steps:
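Drosophila S3 cells got compounds at several concentrations plus oleic acid (400 uM solution). Laser-scanning cytometry with 488 nm excitation read lipid droplets at 500-530 nm and cells at 575-640 nm. Percent activity was relative to 20 uM Triacsin C.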
In general terms: In qHTS, concentration-response curves come from the screen itself.

[1] abbreviates: measured here: lipid fluorescence (Fed channel) AC50, cells fed with added oleic acid.
[2] abbreviates: measured here: cell number channel AC50, cells fed with added oleic acid.

The list shows a part of the results. These are further read-outs of the screen, such as a control signal, another cell line or another target. No call is given for them. Compounds called inactive in the main read-out are mostly missing here. Potencies come from curve fits of mixed quality, noted in brackets.

As to `Cc1cccc(NC(=O)c2ccc(OCC3CCCO3)cc2)c1C` (stereo not given), the cell number change is -15.2%. Besides, the concentration at half-maximal activity (AC50) – broadly, the concentration giving half of the maximal activity seen – under setting [1] was 29.1 µM [falling, single point].
Take `Cc1[nH][nH]c(=O)c1C(c1ccc(-c2ccc(Cl)cc2)o1)c1c(C)[nH][nH]c1=O`: the cell number change came to 9.88%. For the same molecule, under setting [1], the AC50 is 11.6 µM [rising, partial curve].
Regarding `CN(c1ccccc1)S(=O)(=O)c1ccc(C(=O)NCCc2ccccc2)cc1`, the cell number change worked out at 13.9%. In addition, under setting [1], the AC50 was 29.1 µM [falling, single point].
Take `CNC(=O)/C=C1\NC(C)(C)Cc2c1ccc1ccccc21`: the cell number change was -8.62%. Also, the AC50 under setting [1] was 23.1 µM [rising, single point].
Turning to `CCCN(CC(=O)Nc1ccccc1C)C(=O)c1ccc(S(=O)(=O)N2CCCCCC2)cc1`, the cell number change came to 8.21%. Further, under setting [2], the half-maximal activity concentration (AC50) is 7.31 µM [rising, partial curve, poor fit].
On to `CN(Cc1c(C(=O)N/N=C/c2cccc(Cl)c2)nnn1-c1nonc1N)c1ccccc1`, for which the cell number change was -3.05%. Under setting [1], the AC50 was 29.1 µM [rising, single point].
Turning to `CCCN(CCC)CC(O)Cn1cc(/C=C/C(=O)c2cccs2)c2ccccc21` (stereo not given), the cell number change is -17.7%. In addition, the AC50 under setting [1] is 20.6 µM [falling, single point].
Take `CC(/C=N/Nc1ccc2nncn2n1)=C\c1ccccc1`: the cell number change was 12%. Also, the AC50 under setting [2] was 0.146 µM [rising, full curve, poor fit]. For the same molecule, the AC50 under setting [1] was 0.116 µM [rising, full curve, poor fit].
As for `CCc1nc(NCCc2ccccn2)c2nnn(Cc3ccccc3F)c2n1`, the cell number change was -29.6%. Under setting [1], the AC50 is 29.1 µM [falling, single point].
Consider `C/C(=N\N1CCN(C)CC1)c1ccc(OC(F)F)cc1`, for which the cell number change is -38.1%. Moreover, the AC50 under setting [2] is 1.3 µM [falling, full curve, poor fit]. Under setting [1], the concentration at half-maximal activity (AC50) is 1.03 µM [falling, full curve].
Take `COC(=O)c1ccccc1NCc1cc(=O)oc2cc(O)c(O)cc12`: the cell number change was found to be 118%. Under setting [2], the AC50 is 29.1 µM [rising, single point]. In addition, the AC50 under setting [1] was 8.2 µM [rising, partial curve].
With `O=C(N/N=C/c1cccc2ccccc12)c1n[nH]c2c1CCCC2`, the cell number change is 143%. Further, the AC50 under setting [2] is 14.6 µM [rising, partial curve]. In addition, the AC50 under setting [1] was 4.11 µM [rising, single point].
As to `Cc1cc2ccccn2c1C(=O)c1ccc(NN)c([N+](=O)[O-])c1`, the cell number change was -11.2%. Further, under setting [2], the AC50 was 0.82 µM [rising, full curve, poor fit]. Also, under setting [1], the AC50 was 1.3 µM [rising, full curve].
With `CC(=O)Nc1ccc(S(=O)(=O)Nc2cc(C)c(-n3nc4ccccc4n3)cc2O)cc1`, the cell number change is -19.8%.
For the molecule `NC1=NN(c2cccc(C(=O)O)c2)C(=O)C1`, the cell number change was -33.5%. Moreover, the AC50 under setting [2] was 0.00651 µM [falling, full curve, poor fit].
Consider `CSCC[C@H](NC(=O)Nc1ccccc1C)C(=O)O`, for which the cell number change worked out at 26.2%. Moreover, the AC50 under setting [1] was 20.6 µM [rising, single point].
Regarding `c1ccc(-c2nnc3n2N=C(c2ccc4c(c2)OCO4)CS3)nc1`, the cell number change is -89.2%. Also, the AC50 under setting [2] is 23.1 µM [falling, single point]. Further, the AC50 under setting [1] is 29.1 µM [falling, single point].
On to `Cc1c(Cl)ccc(S(=O)(=O)NCCCn2ccnc2)c1Cl`, for which the cell number change was -16.3%.
As to `CCOC(=O)C1=NN(c2ccc(Cl)cc2)C(=O)C1`, the cell number change amounted to 12.6%.
Regarding `COc1cccc(C(C(=O)NC2CCCC2)N(C(=O)c2ccco2)c2ccc(C(C)=O)cc2)c1OC` (stereo not given), the cell number change was -15.8%.
In the case of `COc1cc2c(cc1NC(=O)c1cccc(F)c1)CCCC2`, the cell number change was -52.2%. Also, the AC50 under setting [2] is 29.1 µM [falling, single point]. The AC50 under setting [1] was 25.9 µM [rising, partial curve, poor fit].
In the case of `COc1cc(NS(=O)(=O)c2ccc(NC(=O)c3ccc(S(=O)(=O)N4CCCCC4)cc3)cc2)ncn1`, the cell number change is 22%. Also, the AC50 under setting [1] is 4.11 µM [rising, single point].
For the molecule `CCCC(=O)N1CCN(c2ccc(NC(=O)C(C)(C)C)cc2Cl)CC1`, the cell number change was -71.9%. Further, the AC50 under setting [2] is 23.1 µM [falling, partial curve, poor fit]. In addition, under setting [1], the AC50 was 1.64 µM [falling, partial curve].
Take `Oc1ccc(N2CCN(c3ccnc4cc(Cl)ccc34)CC2)cc1`: the cell number change came to 17.7%. In addition, the AC50 under setting [1] is 6.51 µM [rising, single point].
With `CN(C)CCCNc1ncnc2oc(-c3ccccc3)c(-c3ccccc3)c12`, the cell number change stood at 2.95%. Besides, under setting [1], the AC50 is 2.59 µM [falling, full curve].
`COc1cccc(C(=O)Nc2ccc(C(F)(F)F)n(C)c2=O)c1`: the AC50 under setting [1] was 6.51 µM [rising, single point].
On to `CCCN1C2CCCC1CC(NC(=O)c1ccc(Br)cc1)C2` (stereo not given), for which the cell number change is -0.549%. For the same molecule, the half-maximal activity concentration (AC50) under setting [1] is 5.17 µM [falling, partial curve].
Take `Brc1csc(/C=N/Nc2nc3ccccc3s2)c1`: the cell number change is -59.9%. Also, under setting [2], the AC50 is 14.6 µM [falling, partial curve]. For the same molecule, the AC50 under setting [1] is 14.6 µM [falling, single point].
As to `COc1ccc(NC(=O)c2cnc(SC)n2-c2ccc(F)cc2)c(OC)c1`, the cell number change is -6.67%. In addition, the AC50 under setting [1] is 0.13 µM [rising, single point].
For `CCCCn1c(SCC(=O)Nc2nnc(CC)s2)nc2c1c(=O)n(C)c(=O)n2C`, the cell number change was 20.7%. The AC50 under setting [1] is 4.61 µM [rising, full curve, poor fit].
For the molecule `Cc1ccc(S(=O)(=O)c2nc(-c3ccccc3)oc2N2CCC(C(N)=O)CC2)cc1`, the cell number change was determined as 37.9%. Besides, under setting [2], the AC50 was 1.3 µM [rising, full curve, poor fit].
For `O=C(CCN1CCc2ccccc2CC1)c1ccc2c(c1)OCCO2`, the cell number change was -30.6%. Under setting [2], the AC50 was 9.2 µM [falling, partial curve, poor fit]. Moreover, under setting [1], the AC50 was 18.4 µM [falling, single point].
`COc1ccc(-c2cnc(N)nc2-c2ccc(OC)cc2O)cc1`: the cell number change was -9.28%. The AC50 under setting [2] was 0.58 µM [rising, full curve].
`CC(C)OCCCN1C(=O)c2[nH]nc(-c3ccccc3O)c2C1c1cccc(Cl)c1` (stereo not given): the cell number change is -80.3%. Besides, the AC50 under setting [2] is 29.1 µM [falling, single point]. In addition, the AC50 under setting [1] is 29.1 µM [falling, partial curve].
On to `O=C(O)c1cccc(NC(=O)c2cn(-c3ccccc3)nc2-c2cccc(Br)c2)c1`, for which the cell number change was determined as 21.8%.
Turning to `COc1cccc(CNC(=O)C(=O)NCC2OCCCN2S(=O)(=O)c2cc(C)ccc2C)c1` (stereo not given), the cell number change came out at 8.09%. The AC50 under setting [1] was 2.91 µM [rising, full curve].
Take `Cc1ccccc1NC(=O)Cc1nnc(SCC(=O)NC2=NCCS2)n1C`: the cell number change was -5.56%. Also, the AC50 under setting [1] is 29.1 µM [falling, single point].
For the molecule `Nc1nc(N2CCOCC2)n[nH]1`, the cell number change came to 24.8%.
In the case of `Cc1nnc2ccc(Oc3ccc(-c4ccccc4)cc3)nn12`, the cell number change is -44.6%. The AC50 under setting [2] is 16.4 µM [falling, single point]. In addition, the AC50 under setting [1] is 29.1 µM [falling, single point].
Turning to `CC(C)c1nnc(NC(=O)CSc2nc3ccccc3s2)s1`, the cell number change is -75.7%. Further, under setting [2], the AC50 is 29.1 µM [falling, single point]. The AC50 under setting [1] was 29.1 µM [falling, single point].
In the case of `COc1cc(C2c3c(oc4ccccc4c3=O)C(=O)N2c2nccs2)ccc1O` (stereo not given), the cell number change came to 0.27%.
For the molecule `Cn1cnc([N+](=O)[O-])c1S(=O)(=O)c1cccc(Cl)c1`, the cell number change was -84.8%. Further, the AC50 under setting [2] was 23.1 µM [falling, partial curve]. Besides, the AC50 under setting [1] was 14.6 µM [falling, partial curve].
For `O=c1c2cnn(-c3ccccc3)c2nc(-c2ccco2)n1-c1ccccc1`, the cell number change was found to be 33.7%. The AC50 under setting [2] was 29.1 µM [rising, single point]. For the same molecule, the AC50 under setting [1] was 16.4 µM [rising, single point].
With `COc1ccc(N)cc1-n1cnnn1`, the cell number change is -23.8%. For the same molecule, the AC50 under setting [2] was 1.64 µM [falling, partial curve, poor fit]. Besides, the AC50 under setting [1] was 1.84 µM [falling, partial curve, poor fit].
Regarding `COc1ccc(CC(=O)NC(c2ccccc2)c2ccc(C)cc2)c(OC)c1` (stereo not given), the cell number change was -6.94%. Further, the AC50 under setting [1] was 6.51 µM [rising, partial curve].
Turning to `COc1cccc(CNC(=O)c2ccncc2)c1`, the cell number change is 13.5%. Moreover, the AC50 under setting [1] is 0.00517 µM [falling, full curve, poor fit].
As for `CC1=NN(C(=O)c2ccc(Cn3nc(C)c([N+](=O)[O-])c3C)o2)C(O)(C(F)(F)F)C1` (stereo not given), the cell number change was found to be 40.6%. Further, the AC50 under setting [2] is 8.2 µM [rising, partial curve]. The half-maximal activity concentration (AC50) under setting [1] is 13 µM [rising, partial curve, poor fit].
As for `COc1cccc(-c2cc(C(=O)N3CCOCC3)no2)c1`, the cell number change stood at 17.1%. Under setting [2], the AC50 was 0.291 µM [rising, full curve, poor fit]. The AC50 under setting [1] was 29.1 µM [rising, partial curve, poor fit].
`CCc1cn([C@H]2C[C@H](O)[C@@H](CO)O2)c(=O)[nH]c1=O`: the AC50 under setting [1] is 29.1 µM [rising, single point].
For the molecule `O=C(NC(NC(=S)Nc1cccc(C(=O)O)c1)C(Cl)(Cl)Cl)OCc1ccccc1` (stereo not given), the cell number change came to 1.57%. Besides, the AC50 under setting [1] is 11.6 µM [rising, partial curve].
Turning to `c1cn(-c2ncnc3sc4c(c23)CCCC4)cn1`, the cell number change worked out at 5.1%.
Regarding `Cc1cc(C(=O)CSc2nnc(N)s2)c(C)n1C1CC1`, the cell number change was -16.5%.
Same read-out and setting: with `CCc1ccc(CNC(=O)c2nn(C)c3c2CS(=O)(=O)c2ccccc2-3)cc1` the figure was 18.2%.
As for `COc1ccc(N2C(=O)c3ccccc3NC2c2ccccc2O)cc1` (stereo not given), the cell number change was -17.7%. In addition, the AC50 under setting [1] was 0.58 µM [falling, single point].
Consider `COc1ccc(CCNC(=O)COC(=O)C2CCCCC2)cc1`, for which the cell number change turned out to be 19.3%. The AC50 under setting [2] was 4.11 µM [falling, single point].
Consider `CSCCC(=O)NC1CCCN(CCc2ccccc2)C1` (stereo not given), for which the cell number change came out at 13%. Further, under setting [1], the AC50 was 20.6 µM [rising, partial curve].
As for `Cc1cccc(NC(=S)NCCO)c1C`, the AC50 under setting [1] is 0.731 µM [falling, full curve].
Consider `C#CCCCc1nc2ccccc2c(=O)n1N`, for which the cell number change worked out at 21.5%.
